Assay [1] concerns the target ZmJAZ14 (GAL4 DNA-binding domain fusion, pGBK-ZmJAZ14) (maize (Zea mays L.)). Briefly: two-hybrid; GAL-4 based yeast two-hybrid in yeast AH109; pGBK-ZmJAZ14 (bait) with Arabidopsis proteins in pGAD-T7; growth on SD-L-T-A-H against SD/-L-T; serial dilutions from OD600 = 1, 4 days at 28°C.
Assay [2] has as its target ZmJAZ14 (split-YFP fusion for BiFC) (maize (Zea mays L.)). Briefly: split reporter; BiFC with N- and C-terminal fragments of YFP (pUC-SPYNE, pUC-SPYCE), co-expressed in maize mesophyll protoplasts, 16 h, confocal microscopy.

These are yes or no findings as the source states them, for the method shown. Binding can be weak; no strength is given. Tags and fused reporters may be left off the sequences shown. For part of these data: Binding seen in cells or lysates may run through a third protein.

B1: EIL1 (GAL4 activation domain fusion, pGAD-T7) (protein, UniProt Q9SLH0 1-584)
chain: MMMFNEMGMYGNMDFFSSSTSLDVCPLPQAEQEPVVEDVDYTDDEMDVDELEKRMWRDKMRLKRLKEQQSKCKEGVDGSKQRQSQEQARRKKMSRAQDGILKYMLKMMEVCKAQGFVYGIIPEKGKPVTGASDNLREWWKDKVRFDRNGPAAIAKYQSENNISGGSNDCNSLVGPTPHTLQELQDTTLGSLLSALMQHCDPPQRRFPLEKGVSPPWWPNGNEEWWPQLGLPNEQGPPPYKKPHDLKKAWKVGVLTAVIKHMSPDIAKIRKLVRQSKCLQDKMTAKESATWLAIINQEEVVARELYPESCPPLSSSSSLGSGSLLINDCSEYDVEGFEKEQHGFDVEERKPEIVMMHPLASFGVAKMQHFPIKEEVATTVNLEFTRKRKQNNDMNVMVMDRSAGYTCENGQCPHSKMNLGFQDRSSRDNHQMVCPYRDNRLAYGASKFHMGGMKLVVPQQPVQPIDLSGVGVPENGQKMITELMAMYDRNVQSNQTPPTLMENQSMVIDAKAAQNQQLNFNSGNQMFMQQGTNNGVNNRFQMVFDSTPFDMAAFDYRDDWQTGAMEGMGKQQQQQQQQQDVSIWF
Consider B1, for which the binding result in assay [1] is on record as “binds”.

B2: MYB24 (GAL4 activation domain fusion, pGAD-T7) (protein, UniProt Q9SPG9 1-214)
chain: MEKRESSGGSGSGDAEVRKGPWTMEEDLILINYIANHGEGVWNSLAKSAGLKRTGKSCRLRWLNYLRPDVRRGNITPEEQLTIMELHAKWGNRWSKIAKHLPGRTDNEIKNFWRTKIQKYIIKSGETTTVGSQSSEFINHHATTSHVMNDTQETMDMYSPTTSYQHASNINQQLNYGNYVPESGSIMMPLSVDQSEQNYWSVDDLWPMNIYNGN
For B2, the binding result in assay [1] is on record as “binds”.

B3: MYB21 (split-YFP fusion for BiFC) (protein, UniProt Q9LK95 1-226)
chain: MEKRGGGSSGGSGSSAEAEVRKGPWTMEEDLILINYIANHGDGVWNSLAKSAGLKRTGKSCRLRWLNYLRPDVRRGNITPEEQLIIMELHAKWGNRWSKIAKHLPGRTDNEIKNFWRTRIQKYIKQSDVTTTSSVGSHHSSEINDQAASTSSHNVFCTQDQAMETYSPTPTSYQHTNMEFNYGNYSAAAVTATVDYPVPMTVDDQTGENYWGMDDIWSSMHLLNGN
With B3, in assay [2], the binding result is given as “binds”.

B4: MYB21 (GAL4 activation domain fusion, pGAD-T7) (protein, UniProt Q9LK95 1-226)
chain: MEKRGGGSSGGSGSSAEAEVRKGPWTMEEDLILINYIANHGDGVWNSLAKSAGLKRTGKSCRLRWLNYLRPDVRRGNITPEEQLIIMELHAKWGNRWSKIAKHLPGRTDNEIKNFWRTRIQKYIKQSDVTTTSSVGSHHSSEINDQAASTSSHNVFCTQDQAMETYSPTPTSYQHTNMEFNYGNYSAAAVTATVDYPVPMTVDDQTGENYWGMDDIWSSMHLLNGN
On to B4, for which the binding entry in assay [1] is reported as “binds”.

B5: PAP1 (GAL4 activation domain fusion, pGAD-T7) (protein, UniProt Q9FE25 1-248)
chain: MEGSSKGLRKGAWTTEEDSLLRQCINKYGEGKWHQVPVRAGLNRCRKSCRLRWLNYLKPSIKRGKLSSDEVDLLLRLHRLLGNRWSLIAGRLPGRTANDVKNYWNTHLSKKHEPCCKIKMKKRDITPIPTTPALKNNVYKPRPRSFTVNNDCNHLNAPPKVDVNPPCLGLNINNVCDNSIIYNKDKKKDQLVNNLIDGDNMWLEKFLEESQEVDILVPEATTTEKGDTLAFDVDQLWSLFDGETVKFD
Take B5: the binding entry in assay [1] is recorded as “binds”.

B6: GL1 (GAL4 activation domain fusion, pGAD-T7) (protein, UniProt P27900 1-228)
chain: MRIRRRDEKENQEYKKGLWTVEEDNILMDYVLNHGTGQWNRIVRKTGLKRCGKSCRLRWMNYLSPNVNKGNFTEQEEDLIIRLHKLLGNRWSLIAKRVPGRTDNQVKNYWNTHLSKKLVGDYSSAVKTTGEDDDSPPSLFITAATPSSCHHQQENIYENIAKSFNGVVSASYEDKPKQELAQKDVLMATTNDPSHYYGNNALWVHDDDFELSSLVMMNFASGDVEYCL
Regarding B6, the binding result in assay [1] is “binds”.

B7: GL3 (GAL4 activation domain fusion, pGAD-T7) (protein, UniProt Q9FN69 1-637)
chain: MATGQNRTTVPENLKKHLAVSVRNIQWSYGIFWSVSASQSGVLEWGDGYYNGDIKTRKTIQASEIKADQLGLRRSEQLSELYESLSVAESSSSGVAAGSQVTRRASAAALSPEDLADTEWYYLVCMSFVFNIGEGMPGRTFANGEPIWLCNAHTADSKVFSRSLLAKSAAVKTVVCFPFLGGVVEIGTTEHITEDMNVIQCVKTSFLEAPDPYATILPARSDYHIDNVLDPQQILGDEIYAPMFSTEPFPTASPSRTTNGFDQEHEQVADDHDSFMTERITGGASQVQSWQLMDDELSNCVHQSLNSSDCVSQTFVEGAAGRVAYGARKSRVQRLGQIQEQQRNVKTLSFDPRNDDVHYQSVISTIFKTNHQLILGPQFRNCDKQSSFTRWKKSSSSSSGTATVTAPSQGMLKKIIFDVPRVHQKEKLMLDSPEARDETGNHAVLEKKRREKLNERFMTLRKIIPSINKIDKVSILDDTIEYLQELERRVQELESCRESTDTETRGTMTMKRKKPCDAGERTSANCANNETGNGKKVSVNNVGEAEPADTGFTGLTDNLRIGSFGNEVVIELRCAWREGVLLEIMDVISDLHLDSHSVQSSTGDGLLCLTVNCKHKGSKIATPGMIKEALQRVAWIC
Take B7: in assay [1], the binding entry is given as “binds”.

B8: AtJAZ7 (GAL4 activation domain fusion, pGAD-T7) (protein, UniProt O64687 1-148)
chain: MIIIIKNCDKPLLNFKEMEMQTKCDLELRLLTSSYDSDFHSSLDESSSSEISQPKQESQILTIFYNGHMCVSSDLTHLEANAILSLASRDVEEKSLSLRSSDGSDPPTIPNNSTRFHYQKASMKRSLHSFLQKRSLRIQATSPYHRYR
As to B8, the binding result in assay [1] is given as “no binding”.

B9: RGL1 (GAL4 activation domain fusion, pGAD-T7) (protein, UniProt Q9C8Y3 1-511)
chain: MKREHNHRESSAGEGGSSSMTTVIKEEAAGVDELLVVLGYKVRSSDMADVAHKLEQLEMVLGDGISNLSDETVHYNPSDLSGWVESMLSDLDPTRIQEKPDSEYDLRAIPGSAVYPRDEHVTRRSKRTRIESELSSTRSVVVLDSQETGVRLVHALLACAEAVQQNNLKLADALVKHVGLLASSQAGAMRKVATYFAEGLARRIYRIYPRDDVALSSFSDTLQIHFYESCPYLKFAHFTANQAILEVFATAEKVHVIDLGLNHGLQWPALIQALALRPNGPPDFRLTGIGYSLTDIQEVGWKLGQLASTIGVNFEFKSIALNNLSDLKPEMLDIRPGLESVAVNSVFELHRLLAHPGSIDKFLSTIKSIRPDIMTVVEQEANHNGTVFLDRFTESLHYYSSLFDSLEGPPSQDRVMSELFLGRQILNLVACEGEDRVERHETLNQWRNRFGLGGFKPVSIGSNAYKQASMLLALYAGADGYNVEENEGCLLLGWQTRPLIATSAWRINRVE
With B9, the binding entry in assay [1] was “binds”.
